PubChem BioAssay AID1259314 | Drosophila RNAi Screening Center – 2017
The whole screen tested about 3,100 reagents; shown is an unselected part. Of all reagents, 289 (9.3%) were called active. 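Active includes both higher and lower ATP than plate average; check the z-score sign for direction.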 Entries without a mark were called inactive. Reagents against one gene are numbered here. A plus sign joins genes that one reagent is predicted to hit. The record does not give: the amount of reagent.

- Screen: 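Modifiers of manganese chloride toxicity in fly cells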 (primary screen)
- System: Drosophila S2R+ cells
- Knock-down reagent: long dsRNA against Drosophila genes
- Time to read-out: 5 days (4 days knock-down, then 1 day metal exposure)
- Treatment: manganese chloride added to 15 mM for 24 hours
- Measurement: 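Luciferase ATP signal used as a proxy for viable cell number, reported as one averaged z-score per dsRNA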
- Scale: mean ATP z-score: higher = more ATP than the plate average, more viable cells under manganese
- Call rule: 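a mean ATP z-score past 1.5 in either direction is called active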
- Calls: active = strong ATP change, up or down; inactive = no strong ATP change

Ptp99A (Protein tyrosine phosphatase 99A) #1: mean ATP z-score = -0.261
Ptp99A (Protein tyrosine phosphatase 99A) #2: mean ATP z-score = 0.0646
Ptp99A (Protein tyrosine phosphatase 99A) #3: mean ATP z-score = 0.864
Ptp99A (Protein tyrosine phosphatase 99A) #4: mean ATP z-score = -0.272
Ptp99A (Protein tyrosine phosphatase 99A) #5: mean ATP z-score = -0.533
CG2938: mean ATP z-score = -1.69 (active)
glec (gliolectin) #1: mean ATP z-score = -0.847
glec (gliolectin) #2: mean ATP z-score = -1.4
ppk24 (pickpocket 24) #1: mean ATP z-score = -0.395
ppk24 (pickpocket 24) #2: mean ATP z-score = -0.99
RYa-R (RYamide receptor): mean ATP z-score = 0.127
Or13a (Odorant receptor 13a) #1: mean ATP z-score = -0.0476
Or13a (Odorant receptor 13a) #2: mean ATP z-score = 1.37
Nrk (Neurospecific receptor kinase) #1: mean ATP z-score = -1.28
Nrk (Neurospecific receptor kinase) #2: mean ATP z-score = 0.398
Nrk (Neurospecific receptor kinase) #3: mean ATP z-score = 0.438
Pex23 (Peroxin 23) #1: mean ATP z-score = 1.38
Pex23 (Peroxin 23) #2: mean ATP z-score = -0.986
Pex23 (Peroxin 23) #3: mean ATP z-score = 1.3
CG32053: mean ATP z-score = -0.417
CG6845 #1: mean ATP z-score = -0.961
CG6845 #2: mean ATP z-score = 1.36
ppk21 (pickpocket 21) #1: mean ATP z-score = 0.445
ppk21 (pickpocket 21) #2: mean ATP z-score = -0.0222
CngB (Cyclic nucleotide-gated ion channel subunit B): mean ATP z-score = -1.06

8 successive reagents from above, quoted:
ppk24 (pickpocket 24) #2: mean ATP z-score = -0.99
RYa-R (RYamide receptor): mean ATP z-score = 0.127
Or13a (Odorant receptor 13a) #1: mean ATP z-score = -0.0476
Or13a (Odorant receptor 13a) #2: mean ATP z-score = 1.37
Nrk (Neurospecific receptor kinase) #1: mean ATP z-score = -1.28
Nrk (Neurospecific receptor kinase) #2: mean ATP z-score = 0.398
Nrk (Neurospecific receptor kinase) #3: mean ATP z-score = 0.438
Pex23 (Peroxin 23) #1: mean ATP z-score = 1.38

The listing continues.
sNPF-R (short neuropeptide F receptor): mean ATP z-score = -0.59
CG6574 #1: mean ATP z-score = 0.0836
CG6574 #2: mean ATP z-score = -0.234
Zip99C (Zinc/iron regulated transporter-related protein 99C): mean ATP z-score = 0.402
CG34135 + CG11768 #1: mean ATP z-score = -0.216
CG34135 + CG11768 #2: mean ATP z-score = 0.896
SCAP (SREBP cleavage activating protein) #1: mean ATP z-score = -1.01
SCAP (SREBP cleavage activating protein) #2: mean ATP z-score = -0.227
CG9416: mean ATP z-score = -0.705
CG11703 #1: mean ATP z-score = -0.844
CG11703 #2: mean ATP z-score = -0.424
CR12628 + Mgstl #1: mean ATP z-score = 3.64 (active)
CR12628 + Mgstl #2: mean ATP z-score = 2.56 (active)
CG6356 #1: mean ATP z-score = -0.194
CG6356 #2: mean ATP z-score = -0.34
Slc25A46a #1: mean ATP z-score = -0.84
Slc25A46a #2: mean ATP z-score = -0.257
CG31998 #1: mean ATP z-score = 0.588
CG31998 #2: mean ATP z-score = 0.0174
bark (bark beetle) #1: mean ATP z-score = -0.0607
bark (bark beetle) #2: mean ATP z-score = -0.594
CG9444: mean ATP z-score = -0.41
